The source of these data is the supplement of paper PMC4604168 (melanoma cell lines).

Some of the results follow. Single values are uncertain, as repeats are few or missing.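 Cells were imaged in 1,536-well plates, and nuclei stained with an antibody against cleaved PARP were counted against all DNA-stained nuclei to give the apoptosis fraction. Screening doses were chosen to leave most cells alive, and resting and induced cleaved-PARP levels differ strongly between cell lines.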

Among the test systems are MZ2-MEL; MeWo; RPMI7951; RVH-421; SkMel28; SkMel2; SkMel30; UACC62; WM115; WM1716; WM1745; WM3526; WM3619; WM451Lu.
Holding throughout (experiment): cleaved PARP positive nuclei fraction relative to DMSO control; melanoma cells; higher = more apoptosis
Conditions in all cases: library dose: low library concentration; 72 h

`O=C(/C=C/c1cccnc1)NCCCCC1CCN(C(=O)c2ccccc2)CC1` + Cn1c(Nc2ccc(C(F)(F)F)cc2)nc2cc(Oc3ccnc(-c4ncc(C(F)(F)F)[nH]4)c3)ccc21 [CHIR265] (first compound 0.01 µM, partner dose 0.08 µM): the “cleaved PARP positive nuclei fraction” value was determined as 532% in the assay with MZ2-MEL; 357% in the assay on MeWo; 129% in the assay with RPMI7951; 145% in the assay with RVH-421; 122% in the assay with SkMel28; 511% in the assay with SkMel2. Also, the “cleaved PARP positive nuclei fraction” value in the assay on SkMel30 was 93.4%; in the assay with UACC62 it was 335%; in the assay with WM115 it was 558%; with WM1716, 77.5%; in the assay on WM1745, 135%; with WM3526, 161%. Also, the “cleaved PARP positive nuclei fraction” value with WM3619 came out at 127%; in the assay with WM451Lu, 87.6%.

As to `COc1cc([C@@H]2c3cc4c(cc3[C@@H](O[C@@H]3O[C@@H]5CO[C@@H](C)O[C@H]5[C@H](O)[C@H]3O)[C@H]3COC(=O)[C@H]23)OCO4)cc(OC)c1O` [etoposide] + C#Cc1cccc(Nc2ncnc3cc(OCCOC)c(OCCOC)cc23)c1 [erlotinib] (first compound 0.02 µM, partner dose 0.8 µM), the “cleaved PARP positive nuclei fraction” value stood at 77.1% in the assay on MZ2-MEL; 53.2% in the assay on MeWo; 212% with RPMI7951; 144% in the assay on RVH-421; 97.9% in the assay on SkMel28; 5980% in the assay on SkMel2. Moreover, the “cleaved PARP positive nuclei fraction” value with SkMel30 came out at 42.9%; with UACC62, 314%; in the assay with WM115 it was 142%; in the assay on WM1716, 143%; in the assay with WM1745 it was 102%; with WM3526, 167%. For the same molecule, the “cleaved PARP positive nuclei fraction” value in the assay with WM3619 was 109%; in the assay with WM451Lu it was 92.4%.

For the molecule `N#CC[C@H](C1CCCC1)n1cc(-c2ncnc3[nH]ccc23)cn1` [ruxolitinib] + Cn1c(Nc2ccc(C(F)(F)F)cc2)nc2cc(Oc3ccnc(-c4ncc(C(F)(F)F)[nH]4)c3)ccc21 [CHIR265] (first compound 1 µM, partner dose 0.08 µM), the “cleaved PARP positive nuclei fraction” value in the assay on MZ2-MEL was 20.4%; in the assay with MeWo, 277%; with RPMI7951 it was 65.9%; in the assay with RVH-421 it was 300%; in the assay with SkMel28, 230%; in the assay with SkMel2, 111%. The “cleaved PARP positive nuclei fraction” value amounted to 95.9% in the assay on SkMel30; 36.2% in the assay with UACC62; 210% in the assay on WM115; 84% with WM1716; 114% in the assay with WM1745; 28.8% in the assay with WM3526. Also, the figures for the “cleaved PARP positive nuclei fraction” value in the assay with WM3619 and in the assay on WM451Lu were 95.6% and 52.9%, respectively.

For the molecule `Cc1cc(Nc2cc(N3CCN(C)CC3)nc(Sc3ccc(NC(=O)C4CC4)cc3)n2)n[nH]1` [Tozasertib] + O=C(/C=C/c1cccnc1)NCCCCC1CCN(C(=O)c2ccccc2)CC1 [FK866] (first compound 0.006 µM, partner dose 0.01 µM), the “cleaved PARP positive nuclei fraction” value with MZ2-MEL was determined as 407%; in the assay on MeWo, 96.6%; in the assay with RPMI7951, 170%; in the assay with RVH-421 it was 89%; in the assay with SkMel28, 115%; in the assay on SkMel2 it was 660%. Moreover, the “cleaved PARP positive nuclei fraction” value with SkMel30 was 186%; with UACC62, 248%; in the assay with WM115, 223%; in the assay on WM1716, 136%; in the assay on WM1745, 106%; in the assay on WM3526 it was 214%. The “cleaved PARP positive nuclei fraction” value came out at 104% in the assay with WM3619 and 82.6% with WM451Lu.

For the molecule `Cc1ccc(Nc2nccc(N(C)c3ccc4c(C)n(C)nc4c3)n2)cc1S(N)(=O)=O` [Pazopanib] + NC1(c2ccc(-c3nc4ccn5c(=O)[nH]nc5c4cc3-c3ccccc3)cc2)CCC1 [MK2206] (first compound 0.4 µM, partner dose 0.4 µM), the “cleaved PARP positive nuclei fraction” value with MZ2-MEL stood at 80%; with MeWo, 31.9%; in the assay with RPMI7951, 142%; with RVH-421, 96.1%; with SkMel28, 164%; with SkMel2, 73.8%. For the same molecule, the “cleaved PARP positive nuclei fraction” value in the assay on SkMel30 was 70.5%; in the assay with UACC62 it was 145%; in the assay on WM115, 86.1%; in the assay with WM1716 it was 46.3%; in the assay with WM1745, 98.4%; in the assay with WM3526 it was 146%. Also, the “cleaved PARP positive nuclei fraction” value in the assay with WM3619 was 81.8%; in the assay on WM451Lu, 60%.

For `O=C(/C=C/c1cccnc1)NCCCCC1CCN(C(=O)c2ccccc2)CC1` + CCCCCCCCc1ccc(CCC(N)(CO)CO)cc1 [fingolimod] (first compound 0.01 µM, partner dose 2 µM), the “cleaved PARP positive nuclei fraction” value was determined as 280% in the assay on MZ2-MEL; 103% with MeWo; 238% in the assay on RPMI7951; 54.8% with RVH-421; 106% in the assay with SkMel28; 894% in the assay with SkMel2. Further, the “cleaved PARP positive nuclei fraction” value in the assay with SkMel30 came out at 80.3%; in the assay on UACC62, 74.4%; in the assay with WM115, 106%; with WM1716 it was 392%; with WM1745 it was 202%; in the assay on WM3526 it was 90.1%. The “cleaved PARP positive nuclei fraction” value with WM3619 is 127%; in the assay on WM451Lu, 79.3%.

For the molecule `Cc1cc(Nc2cc(N3CCN(C)CC3)nc(Sc3ccc(NC(=O)C4CC4)cc3)n2)n[nH]1` [Tozasertib] + O=c1[nH]nc(Sc2ncc([N+](=O)[O-])s2)n1-c1ccc2c(c1)OCCO2 [BI78D3] (first compound 0.006 µM, partner dose 0.2 µM), the “cleaved PARP positive nuclei fraction” value came to 123% in the assay with MZ2-MEL; 60.6% in the assay with MeWo; 139% with RPMI7951; 129% in the assay on RVH-421; 80% in the assay with SkMel28; 83.9% in the assay with SkMel2. Also, the “cleaved PARP positive nuclei fraction” value was 70.4% in the assay with SkMel30; 140% in the assay with UACC62; 141% in the assay with WM115; 40.3% with WM1716; 97.7% in the assay with WM1745; 78.2% with WM3526. Further, the figures for the “cleaved PARP positive nuclei fraction” value with WM3619 and with WM451Lu were 97.1% and 42.8%, respectively.

As for `O=C(Nc1cc(C(F)(F)F)cc(C(F)(F)F)c1)c1cc(Cl)ccc1O` + CCN(CC)CCNC(=O)c1c(C)[nH]c(/C=C2\C(=O)Nc3ccc(F)cc32)c1C [sunitinib] (first compound 0.016 µM, partner dose 0.4 µM), the “cleaved PARP positive nuclei fraction” value in the assay on MZ2-MEL was determined as 122%; in the assay on MeWo it was 88.3%; in the assay with RPMI7951 it was 91.7%; with RVH-421, 86.3%; in the assay on SkMel28, 132%; in the assay on SkMel2 it was 65.8%. Further, the “cleaved PARP positive nuclei fraction” value in the assay with SkMel30 was 20.3%; with UACC62 it was 141%; in the assay on WM115, 37.4%; in the assay on WM1716 it was 149%; with WM1745, 102%; in the assay on WM3526, 117%. The “cleaved PARP positive nuclei fraction” value worked out at 91.1% with WM3619 and 192% with WM451Lu.

In the case of `CCCCCCCCCCCCCCCCCCOP(=O)([O-])OC1CC[N+](C)(C)CC1` [Perifosine] + CC1(C)CCC(c2ccc(Cl)cc2)=C(CN2CCN(c3ccc(C(=O)NS(=O)(=O)c4ccc(N[C@H](CCN5CCOCC5)CSc5ccccc5)c(S(=O)(=O)C(F)(F)F)c4)cc3)CC2)C1 [ABT263] (first compound 0.4 µM, partner dose 0.4 µM), the “cleaved PARP positive nuclei fraction” value in the assay with MZ2-MEL was found to be 199%; with MeWo, 597%; in the assay on RPMI7951, 497%; with RVH-421, 443%; in the assay on SkMel28, 82.2%; with SkMel2, 119%. Further, the “cleaved PARP positive nuclei fraction” value came out at 109% with SkMel30; 94.1% in the assay on UACC62; 438% with WM115; 202% with WM1716; 194% in the assay on WM1745; 74.8% with WM3526. The “cleaved PARP positive nuclei fraction” value was found to be 102% in the assay with WM3619 and 226% with WM451Lu.
